Here are results for 3 substances from paper PMC6302171.

The chains behind the UniProt entries cited, without tags or fusion partners. Where a name states a change or a piece, a line headed by the entry shows the natural chain unless it says otherwise. Residues count along the entry.
UniProt P07737, residues 2-140: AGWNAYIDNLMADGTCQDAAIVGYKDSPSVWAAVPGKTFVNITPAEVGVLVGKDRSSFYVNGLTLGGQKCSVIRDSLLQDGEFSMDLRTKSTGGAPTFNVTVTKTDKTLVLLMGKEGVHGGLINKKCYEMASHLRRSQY
UniProt Q9Y696: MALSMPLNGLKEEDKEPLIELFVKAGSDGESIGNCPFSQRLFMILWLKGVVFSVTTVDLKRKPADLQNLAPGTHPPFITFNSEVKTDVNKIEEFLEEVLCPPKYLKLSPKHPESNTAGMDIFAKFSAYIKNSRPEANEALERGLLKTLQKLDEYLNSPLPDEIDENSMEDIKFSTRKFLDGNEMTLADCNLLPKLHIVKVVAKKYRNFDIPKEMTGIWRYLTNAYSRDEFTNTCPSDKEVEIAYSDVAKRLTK

For test [1], the target named is GST–profilin-1 (human) (UniProt P07737). The experiment in a line: pull-down; total-cell lysate (1 mg) of HEK293 cells transfected with YFP–CLIC4 (WT or mutants) incubated with GST or GST–profilin-1; blot with anti-GFP; only the target purified.
Test [2] shares this target. Put plainly: pull-down; purified immobilised GST–CLIC4 (WT or C35A) incubated with profilin-1 for 2 h on ice, blot with anti-profilin-1; reciprocal with GST–profilin-1 and CLIC4 WT or C35A; GST alone as control; both purified.
For a further test, the target named is GST–CLIC4 WT (UniProt Q9Y696). The description is as above.

No constants are given. Whether binding was seen depends on the method and setting. For part of these data: Binding seen in cells or lysates may run through a third protein. Some entries that bind do so weakly or less than the wild type.

As for “YFP–CLIC4 (WT) (from UniProt Q9Y696 1-251)”, the binding result with GST–profilin-1 (human) [1] is on record as “binds”.

On to “recombinant purified full-length CLIC4 (from UniProt Q9Y696 1-253)”, for which the binding result with GST–profilin-1 (human) [2] was “binds”.

Take profilin-1 (from UniProt P07737 2-140): the binding entry with GST–CLIC4 WT is “binds”.
